Reference: the supplement of paper PMC10849652
The other results are listed elsewhere or left out.

By UniProt entry, the sequences of proteins in these tests, tags left out. Where a name states a change or a piece, a line headed by the entry shows the natural chain unless it says otherwise.
UniProt Q9P2G1: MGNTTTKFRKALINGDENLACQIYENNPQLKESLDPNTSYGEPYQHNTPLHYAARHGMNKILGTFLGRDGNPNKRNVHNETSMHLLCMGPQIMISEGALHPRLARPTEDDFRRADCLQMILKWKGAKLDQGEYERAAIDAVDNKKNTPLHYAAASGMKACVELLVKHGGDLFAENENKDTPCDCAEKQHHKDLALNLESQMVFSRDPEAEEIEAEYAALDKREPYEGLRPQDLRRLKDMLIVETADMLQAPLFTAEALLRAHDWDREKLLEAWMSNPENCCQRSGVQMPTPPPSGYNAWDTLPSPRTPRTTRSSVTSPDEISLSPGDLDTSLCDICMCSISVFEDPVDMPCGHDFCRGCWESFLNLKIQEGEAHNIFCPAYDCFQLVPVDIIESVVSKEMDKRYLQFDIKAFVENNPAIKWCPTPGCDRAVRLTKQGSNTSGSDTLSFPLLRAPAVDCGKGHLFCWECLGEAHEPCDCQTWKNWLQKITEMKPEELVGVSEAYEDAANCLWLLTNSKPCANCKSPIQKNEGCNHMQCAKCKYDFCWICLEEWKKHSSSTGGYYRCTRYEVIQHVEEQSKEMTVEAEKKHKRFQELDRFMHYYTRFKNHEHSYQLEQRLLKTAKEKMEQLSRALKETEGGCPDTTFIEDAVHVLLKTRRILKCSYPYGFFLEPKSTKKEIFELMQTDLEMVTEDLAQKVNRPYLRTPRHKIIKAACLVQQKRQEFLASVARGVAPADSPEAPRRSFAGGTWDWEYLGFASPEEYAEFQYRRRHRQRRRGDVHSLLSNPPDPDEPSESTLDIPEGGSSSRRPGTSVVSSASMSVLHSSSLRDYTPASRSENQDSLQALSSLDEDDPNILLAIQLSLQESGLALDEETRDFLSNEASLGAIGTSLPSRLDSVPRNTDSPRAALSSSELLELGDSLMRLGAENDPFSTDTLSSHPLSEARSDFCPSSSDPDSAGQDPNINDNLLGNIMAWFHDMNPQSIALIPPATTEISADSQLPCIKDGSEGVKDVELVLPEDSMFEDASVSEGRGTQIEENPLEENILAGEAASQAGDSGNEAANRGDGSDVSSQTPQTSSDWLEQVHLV
UniProt P53677: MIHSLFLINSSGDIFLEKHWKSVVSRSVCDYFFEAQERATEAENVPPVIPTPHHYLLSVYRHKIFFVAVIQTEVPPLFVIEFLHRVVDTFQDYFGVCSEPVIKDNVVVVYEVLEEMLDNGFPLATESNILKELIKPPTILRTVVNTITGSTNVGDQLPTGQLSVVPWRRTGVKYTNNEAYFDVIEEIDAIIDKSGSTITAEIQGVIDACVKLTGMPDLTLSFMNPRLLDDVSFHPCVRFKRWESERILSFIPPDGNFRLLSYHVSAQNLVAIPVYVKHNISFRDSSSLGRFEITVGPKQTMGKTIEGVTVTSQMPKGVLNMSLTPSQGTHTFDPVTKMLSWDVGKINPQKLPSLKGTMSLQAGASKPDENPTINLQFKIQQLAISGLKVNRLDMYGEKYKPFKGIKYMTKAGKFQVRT
UniProt Q86XL3: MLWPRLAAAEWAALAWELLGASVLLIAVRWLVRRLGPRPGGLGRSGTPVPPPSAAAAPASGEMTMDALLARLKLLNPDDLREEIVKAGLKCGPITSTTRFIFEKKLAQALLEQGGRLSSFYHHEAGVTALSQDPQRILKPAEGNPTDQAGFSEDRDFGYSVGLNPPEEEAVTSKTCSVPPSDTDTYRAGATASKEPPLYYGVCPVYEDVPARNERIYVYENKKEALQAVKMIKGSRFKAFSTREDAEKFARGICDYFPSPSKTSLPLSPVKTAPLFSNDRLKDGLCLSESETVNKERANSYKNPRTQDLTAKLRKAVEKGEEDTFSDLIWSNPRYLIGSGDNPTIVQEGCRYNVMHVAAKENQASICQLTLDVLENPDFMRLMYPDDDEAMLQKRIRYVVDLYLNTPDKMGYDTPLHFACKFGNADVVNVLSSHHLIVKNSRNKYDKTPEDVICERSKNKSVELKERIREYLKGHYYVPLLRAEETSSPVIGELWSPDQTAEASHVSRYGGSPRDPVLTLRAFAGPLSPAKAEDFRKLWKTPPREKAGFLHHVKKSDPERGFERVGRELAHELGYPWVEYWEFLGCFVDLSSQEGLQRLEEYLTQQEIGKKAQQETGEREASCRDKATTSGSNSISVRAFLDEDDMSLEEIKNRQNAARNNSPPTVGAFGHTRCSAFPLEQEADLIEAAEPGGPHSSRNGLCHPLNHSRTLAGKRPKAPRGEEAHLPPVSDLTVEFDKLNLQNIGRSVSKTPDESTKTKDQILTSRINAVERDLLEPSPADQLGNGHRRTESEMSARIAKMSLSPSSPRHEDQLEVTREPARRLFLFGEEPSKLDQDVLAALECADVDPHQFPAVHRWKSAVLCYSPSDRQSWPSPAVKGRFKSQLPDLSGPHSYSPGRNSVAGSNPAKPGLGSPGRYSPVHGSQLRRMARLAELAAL
UniProt Q92624: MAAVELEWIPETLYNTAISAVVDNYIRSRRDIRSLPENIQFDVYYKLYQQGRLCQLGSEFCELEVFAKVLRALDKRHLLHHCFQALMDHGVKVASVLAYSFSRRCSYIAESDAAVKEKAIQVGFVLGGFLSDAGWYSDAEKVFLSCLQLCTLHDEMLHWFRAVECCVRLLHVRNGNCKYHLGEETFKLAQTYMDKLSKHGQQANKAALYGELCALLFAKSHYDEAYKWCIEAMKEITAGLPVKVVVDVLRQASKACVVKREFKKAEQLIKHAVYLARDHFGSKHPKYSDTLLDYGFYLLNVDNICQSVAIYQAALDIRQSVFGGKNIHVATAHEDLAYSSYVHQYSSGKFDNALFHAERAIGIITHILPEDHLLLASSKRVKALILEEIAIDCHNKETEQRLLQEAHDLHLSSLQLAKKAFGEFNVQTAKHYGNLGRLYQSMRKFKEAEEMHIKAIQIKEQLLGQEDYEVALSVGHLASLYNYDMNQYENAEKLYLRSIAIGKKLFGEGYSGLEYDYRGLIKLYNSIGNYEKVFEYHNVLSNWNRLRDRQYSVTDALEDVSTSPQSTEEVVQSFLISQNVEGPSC
UniProt A6QL64: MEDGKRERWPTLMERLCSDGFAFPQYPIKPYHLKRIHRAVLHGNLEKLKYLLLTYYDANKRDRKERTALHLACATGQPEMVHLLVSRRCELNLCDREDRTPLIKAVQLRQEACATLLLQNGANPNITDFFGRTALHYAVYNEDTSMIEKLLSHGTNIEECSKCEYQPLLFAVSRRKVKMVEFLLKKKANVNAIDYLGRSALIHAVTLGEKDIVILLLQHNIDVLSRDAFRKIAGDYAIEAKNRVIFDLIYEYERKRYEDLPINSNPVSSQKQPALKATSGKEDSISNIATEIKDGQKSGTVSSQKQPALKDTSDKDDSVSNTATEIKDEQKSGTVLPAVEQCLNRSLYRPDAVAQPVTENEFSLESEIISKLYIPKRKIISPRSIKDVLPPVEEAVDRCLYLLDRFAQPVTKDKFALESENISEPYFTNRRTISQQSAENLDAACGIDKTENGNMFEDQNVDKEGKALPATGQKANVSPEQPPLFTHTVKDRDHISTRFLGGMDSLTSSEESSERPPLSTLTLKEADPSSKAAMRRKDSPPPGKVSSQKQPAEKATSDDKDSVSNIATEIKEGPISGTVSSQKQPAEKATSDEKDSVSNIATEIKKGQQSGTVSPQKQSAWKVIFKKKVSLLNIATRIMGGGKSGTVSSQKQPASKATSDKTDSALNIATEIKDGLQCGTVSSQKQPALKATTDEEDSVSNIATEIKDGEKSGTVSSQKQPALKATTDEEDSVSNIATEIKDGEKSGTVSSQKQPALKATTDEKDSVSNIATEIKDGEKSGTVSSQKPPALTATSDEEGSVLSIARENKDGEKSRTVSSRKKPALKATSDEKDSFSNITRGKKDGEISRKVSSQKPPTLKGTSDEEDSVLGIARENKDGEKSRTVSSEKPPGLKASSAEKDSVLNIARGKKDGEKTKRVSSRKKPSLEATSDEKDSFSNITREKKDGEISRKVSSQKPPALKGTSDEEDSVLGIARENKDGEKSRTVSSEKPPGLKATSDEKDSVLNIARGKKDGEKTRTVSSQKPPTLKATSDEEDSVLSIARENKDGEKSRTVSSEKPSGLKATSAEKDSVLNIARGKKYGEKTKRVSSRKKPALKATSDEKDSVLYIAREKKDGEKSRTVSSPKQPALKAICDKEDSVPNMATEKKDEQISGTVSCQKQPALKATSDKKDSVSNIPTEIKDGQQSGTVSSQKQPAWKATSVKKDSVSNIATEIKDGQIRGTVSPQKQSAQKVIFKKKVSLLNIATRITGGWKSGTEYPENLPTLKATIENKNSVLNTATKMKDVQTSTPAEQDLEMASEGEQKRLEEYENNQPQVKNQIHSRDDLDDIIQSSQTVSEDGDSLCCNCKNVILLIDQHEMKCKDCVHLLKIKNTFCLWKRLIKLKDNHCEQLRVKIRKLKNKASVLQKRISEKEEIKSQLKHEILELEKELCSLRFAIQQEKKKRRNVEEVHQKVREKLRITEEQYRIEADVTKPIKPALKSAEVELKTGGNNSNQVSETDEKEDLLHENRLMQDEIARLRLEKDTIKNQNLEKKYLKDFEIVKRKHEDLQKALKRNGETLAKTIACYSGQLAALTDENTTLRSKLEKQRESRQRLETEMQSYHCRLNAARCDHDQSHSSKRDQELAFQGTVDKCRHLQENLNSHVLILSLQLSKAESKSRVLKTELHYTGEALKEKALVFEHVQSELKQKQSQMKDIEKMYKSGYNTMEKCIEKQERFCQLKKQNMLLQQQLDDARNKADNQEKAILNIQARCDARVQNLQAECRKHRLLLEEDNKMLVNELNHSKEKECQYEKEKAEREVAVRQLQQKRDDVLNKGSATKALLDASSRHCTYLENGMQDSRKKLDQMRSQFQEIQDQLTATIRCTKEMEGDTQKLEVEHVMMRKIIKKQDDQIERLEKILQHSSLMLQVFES
UniProt Q9UNK9: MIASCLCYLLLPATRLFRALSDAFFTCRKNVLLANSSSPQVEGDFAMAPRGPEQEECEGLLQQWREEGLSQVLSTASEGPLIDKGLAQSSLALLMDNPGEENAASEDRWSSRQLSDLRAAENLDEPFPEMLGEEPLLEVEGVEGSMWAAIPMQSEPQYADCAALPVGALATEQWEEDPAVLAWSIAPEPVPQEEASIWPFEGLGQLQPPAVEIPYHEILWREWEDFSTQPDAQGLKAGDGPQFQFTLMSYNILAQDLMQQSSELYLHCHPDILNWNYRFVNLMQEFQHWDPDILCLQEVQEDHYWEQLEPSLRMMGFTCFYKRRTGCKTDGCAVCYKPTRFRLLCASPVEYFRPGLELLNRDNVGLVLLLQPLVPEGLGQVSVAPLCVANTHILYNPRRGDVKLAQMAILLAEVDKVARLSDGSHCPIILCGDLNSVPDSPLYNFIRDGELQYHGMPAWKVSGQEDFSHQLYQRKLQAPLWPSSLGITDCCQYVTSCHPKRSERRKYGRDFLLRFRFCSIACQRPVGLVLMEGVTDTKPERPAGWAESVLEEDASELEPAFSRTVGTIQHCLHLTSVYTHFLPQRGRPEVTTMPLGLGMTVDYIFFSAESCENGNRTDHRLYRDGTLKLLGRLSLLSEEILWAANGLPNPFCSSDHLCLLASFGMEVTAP
UniProt Q9UH17: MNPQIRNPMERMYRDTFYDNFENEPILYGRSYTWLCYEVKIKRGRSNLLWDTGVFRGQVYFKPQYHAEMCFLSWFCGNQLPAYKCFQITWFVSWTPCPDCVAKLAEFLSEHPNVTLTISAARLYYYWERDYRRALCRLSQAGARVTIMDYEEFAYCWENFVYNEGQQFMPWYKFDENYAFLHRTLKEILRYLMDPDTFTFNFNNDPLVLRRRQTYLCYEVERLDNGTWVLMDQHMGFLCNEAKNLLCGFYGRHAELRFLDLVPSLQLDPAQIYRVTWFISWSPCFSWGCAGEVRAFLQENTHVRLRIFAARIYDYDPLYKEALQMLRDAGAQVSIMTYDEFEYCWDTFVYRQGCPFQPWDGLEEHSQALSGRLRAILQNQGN
UniProt Q8N6S4: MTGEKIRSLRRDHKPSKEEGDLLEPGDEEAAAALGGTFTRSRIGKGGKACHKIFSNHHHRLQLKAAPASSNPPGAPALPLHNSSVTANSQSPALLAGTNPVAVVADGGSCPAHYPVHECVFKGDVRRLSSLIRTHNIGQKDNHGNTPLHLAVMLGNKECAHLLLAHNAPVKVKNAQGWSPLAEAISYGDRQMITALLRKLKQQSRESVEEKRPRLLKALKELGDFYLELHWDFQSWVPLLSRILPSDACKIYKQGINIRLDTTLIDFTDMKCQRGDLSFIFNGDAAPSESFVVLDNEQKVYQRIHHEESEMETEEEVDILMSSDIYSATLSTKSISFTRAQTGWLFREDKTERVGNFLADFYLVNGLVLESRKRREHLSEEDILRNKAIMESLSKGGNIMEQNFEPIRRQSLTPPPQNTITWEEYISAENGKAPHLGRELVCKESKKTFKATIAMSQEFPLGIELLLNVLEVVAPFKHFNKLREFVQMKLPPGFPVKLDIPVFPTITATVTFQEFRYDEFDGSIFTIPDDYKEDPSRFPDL

Assays:
Test in all cases: log2 fold change, soluble protein after heating vs DMSO (PISA); higher = thermal stabilisation; K562 cells, 10 uM, 30 min; active = over 0.2 and 3.5 SD of the protein, either way, in both replicates (recomputed)
[1] = compound: CC[C@H](C)N1C=C(C2=C(C=C(C=C21)C3=CN=C(C=C3)N4CCNCC4)C(=O)NCC5=C(C=C(NC5=O)C)C)C
In short: (§1)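 Quantification of soluble protein used TMTpro 16plex LC-MS/MS, with channel sums equalised. Samples were the supernatant after 21,000xg for 90 min of pooled aliquots from K562 cells (2×10^6 cells/mL) treated with 10 μM compound for 30 min, heated for 3 min over 48°C-58°C, and extracted in PBS with 0.5% NP-40 at 4°C. Values, from duplicates, describe thermal stability against control samples on a log2 fold-change scale.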

epoxomicin = compound: CC[C@H](C)[C@@H](C(=O)N[C@@H]([C@@H](C)O)C(=O)N[C@@H](CC(C)C)C(=O)[C@]1(CO1)C)NC(=O)[C@H]([C@@H](C)CC)N(C)C(=O)C [epoxomicin]
In short: as §1

rosiglitazone = compound: CN(CCOC1=CC=C(C=C1)C[C@H]2C(=O)NC(=O)S2)C3=CC=CC=N3 (racemic) [rosiglitazone]
In short: as §1

[2] = compound: CN1C2=C(C3=C1C(=O)N(N=C3)CC4=CC(=CC=C4)N)SC(=C2)S(=O)C
In short: as §1

saracatinib = compound: CN1CCN(CCOc2cc(OC3CCOCC3)c3c(Nc4c(Cl)ccc5c4OCO5)ncnc3c2)CC1 [saracatinib]
In short: as §1

[3] = compound: CNc1nc(-c2ccc3c(N)n[nH]c3c2)cc(N2C[C@@H](C(=O)NC3CCCCC3)CC[C@H]2C)n1
In short: as §1

volasertib = compound: CC[C@@H]1C(=O)N(C)c2cnc(Nc3ccc(C(=O)N[C@H]4CC[C@H](N5CCN(CC6CC6)CC5)CC4)cc3OC)nc2N1C(C)C [volasertib]
In short: as §1

[4] = compound: CCn1c(C(=O)N(C2CC2)C2CC2)cc2c3c(ncn3C)c(Nc3cc(C)n(C)n3)nc21
In short: as §1

[5] = compound: CCn1cc(-c2ccnc3[nH]c(-c4cccc(CN(C)C)c4)cc23)c(-c2ccc(NC(=O)N(C)C)cc2)n1
In short: as §1

[6] = compound: CN(C)CC(=O)Nc1ccc2[nH]c(=O)c3ccccc3c2c1
In short: as §1

[7] = compound: CN1CCC(CNc2ccc3ncc(-c4cccc(OC(F)(F)F)c4)n3n2)CC1
In short: as §1

sotrastaurin = compound: CN1CCN(c2nc(C3=C(c4c[nH]c5ccccc45)C(=O)NC3=O)c3ccccc3n2)CC1 [sotrastaurin]
In short: as §1

alvocidib = compound: CN1CC[C@H](c2c(O)cc(O)c3c(=O)cc(-c4ccccc4Cl)oc23)[C@H](O)C1 [alvocidib]
In short: as §1

Tubastatin A = compound: CN1CCc2c(c3ccccc3n2Cc2ccc(C(=O)NO)cc2)C1 [Tubastatin A]
In short: as §1

[8] = compound: CNC(=O)C1=CC=CC=C1NC2=NC(=NC=C2Cl)NC3=C(C=C(C=C3)N4CCOCC4)OC
In short: as §1

defactinib = compound: CNC(=O)c1ccc(Nc2ncc(C(F)(F)F)c(NCc3nccnc3N(C)S(C)(=O)=O)n2)cc1 [defactinib]
In short: as §1

[9] = compound: COC(=O)[C@H](CCSC)NC(=O)C1=C(C=C(C=C1)NC[C@H](CS)N)C2=CC=CC=C2
In short: as §1

[10] = compound: CC[C@@H]1C(=O)N(C)c2cnc(Nc3ccc(C(=O)NC4CCN(C)CC4)cc3OC)nc2N1C1CCCC1
In short: as §1

rucaparib = compound: CNCc1ccc(-c2[nH]c3cc(F)cc4c3c2CCNC4=O)cc1 [rucaparib]
In short: as §1

encorafenib = compound: COC(=O)N[C@@H](C)CNc1nccc(-c2cn(C(C)C)nc2-c2cc(Cl)cc(NS(C)(=O)=O)c2F)n1 [encorafenib]
In short: as §1

Measured: log2 fold change

ANKIB1 (UniProt Q9P2G1)
inactive: [1] 0.164

ANXA2 (UniProt H0YMT9)
inactive: epoxomicin -0.132 | rosiglitazone 0.289 | [2] -0.057 | saracatinib -0.27 | [3] -0.033

APBA2 (UniProt Q99767)
inactive: epoxomicin 0.074

AQR (UniProt O60306)
inactive: volasertib -0.039 | epoxomicin -0.104 | [4] -0.088 | [5] 0.009 | [6] -0.231 | [2] 0.187 | [7] 0.113 | saracatinib -0.022 | sotrastaurin -0.071 | alvocidib 0.076 | Tubastatin A 0.053 | [8] -0.002 | defactinib -0.202 | [3] 0.031 | [9] -0.036

AP3M2 (UniProt P53677)
inactive: [4] 0.139 | rosiglitazone 0.037 | alvocidib 0.05 | [8] -0.044

APTX (UniProt Q7Z2E3)
inactive: epoxomicin 0.074 | [4] -0.263 | [5] -0.086 | [2] -0.012 | [7] 0.126 | saracatinib -0.022 | sotrastaurin -0.06 | alvocidib 0.048 | [8] -0.138 | [3] -0.042

ANKLE2 (UniProt Q86XL3)
inactive: volasertib -0.009 | [6] 0.005 | defactinib 0.089 | [9] -0.075

APPBP2 (UniProt Q92624)
inactive: volasertib -0.059 | [1] -0.001 | [5] -0.165 | rosiglitazone 0.039 | [2] 0.176 | [7] -0.119 | saracatinib 0.042 | alvocidib 0.163 | Tubastatin A 0.203 | [3] 0.374

APOA4 (UniProt P06727)
inactive: [1] 0.014 | epoxomicin -0.066 | [6] -0.053 | rosiglitazone 0.039 | Tubastatin A -0.05 | defactinib -0.12 | [9] -0.033

APOL1 isoform 2 (UniProt O14791)
inactive: [10] 0.295 | [1] -0.388 | rosiglitazone 0.012 | alvocidib 0.022 | Tubastatin A 0.332 | rucaparib -0.298 | encorafenib -0.33

ANKRD36 (UniProt A6QL64)
inactive: [10] 0.089 | epoxomicin 0.14 | [5] 0.036 | [6] -0.28 | [2] 0.293 | [7] -0.528 | saracatinib -0.356 | sotrastaurin 0.05 | Tubastatin A -0.091 | defactinib 0.197 | rucaparib -0.102 | [3] 0.082 | encorafenib -0.075 | [9] -0.164

ANPEP (UniProt P15144)
inactive: volasertib -0.051 | [1] 0.087 | [4] 0.102 | [5] -0.063 | [2] -0.144 | [7] -0.069 | saracatinib 0.011 | sotrastaurin 0.023 | alvocidib -0.082 | Tubastatin A -0.145 | [8] 0.1 | [3] -0.004

AP1G2 (UniProt O75843)
inactive: volasertib -0.126 | [4] -0.122 | [2] 0.101 | saracatinib 0.064 | alvocidib 0.028 | [8] -0.008 | [3] 0.164

ANGEL1 (UniProt Q9UNK9)
inactive: [6] 0.038 | Tubastatin A 0.089 | defactinib -0.076 | [9] 0.095

AP4E1 (UniProt Q9UPM8)
inactive: volasertib -0.273 | [1] 0.095 | epoxomicin -0.024 | [4] 0.008 | [5] -0.012 | [6] -0.01 | rosiglitazone 0.128 | [2] 0.081 | [7] -0.364 | saracatinib 0.144 | sotrastaurin -0.239 | alvocidib 0 | Tubastatin A 0.041 | [8] -0.101 | defactinib -0.075 | [3] -0.165 | [9] 0.037

Reprinted from the listing (two entries):
AP1G2 (UniProt O75843)
inactive: volasertib -0.126 | [4] -0.122 | [2] 0.101 | saracatinib 0.064 | alvocidib 0.028 | [8] -0.008 | [3] 0.164

ANGEL1 (UniProt Q9UNK9)
inactive: [6] 0.038 | Tubastatin A 0.089 | defactinib -0.076 | [9] 0.095

Remaining list, next part.

APC (UniProt P25054)
inactive: [10] 0.186 | epoxomicin -0.06 | [4] 0.077 | [6] 0.047 | rosiglitazone -0.143 | [2] 0.12 | saracatinib 0.099 | alvocidib 0.099 | Tubastatin A 0.135 | [8] -0.046 | defactinib -0.128 | rucaparib 0.057 | [3] 0.373 | encorafenib -0.002 | [9] -0.029

APOBEC3B (UniProt Q9UH17)
inactive: [1] -0.233 | alvocidib 0.014

ARHGAP21 (UniProt Q5T5U3)
inactive: [1] -0.179 | epoxomicin -0.185 | [5] 0.284 | rosiglitazone -0.258 | [2] 0.401 | [7] 0.028 | saracatinib -0.099 | sotrastaurin 0.117 | alvocidib -0.001 | [3] 0.06

ANKRD11 (UniProt Q6UB99)
inactive: [1] -0.212 | [4] 0.002 | [6] 0.023 | rosiglitazone 0.052 | sotrastaurin 0.114 | [8] 0.037 | defactinib -0.013 | [9] 0.052

ANKRD13C (UniProt Q8N6S4)
inactive: [10] -0.191 | epoxomicin 0.019 | [6] 0.001 | alvocidib -0.077 | Tubastatin A 0.054 | defactinib -0.197 | rucaparib 0.158 | encorafenib -0.081 | [9] -0.042
